Laboratory results: the supplement of paper PMC4604168 (melanoma cell lines)
The other results are listed elsewhere or left out. Many values rest on one well or one pass, so single values are uncertain.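 Cells were imaged in 1,536-well plates, and nuclei stained with an antibody against cleaved PARP were counted against all DNA-stained nuclei to give the apoptosis fraction. Screening doses were chosen to leave most cells alive, and resting and induced cleaved-PARP levels differ strongly between cell lines.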

system: COLO800; experiment: cleaved PARP positive nuclei fraction relative to DMSO control; melanoma cells; higher = more apoptosis; conditions: library dose: low library concentration; 72 h

Row | Structure (SMILES) | cleaved PARP positive nuclei fraction
1 | CCCCCCCCc1ccc(CCC(N)(CO)CO)cc1 [fingolimod] + Cc1ccc(NC(=O)c2cccc(N(C)C)c2)cc1NC(=O)c1ccc(O)cc1 [ZM336372] (first compound 2 µM, partner dose 2 µM) | 56.3%
2 | Cn1sc(=O)n(Cc2ccccc2)c1=O + Cn1cc(/C=C2\C(=O)Nc3cccnc32)c2ccccc21 [GW441756] (first compound 0.4 µM, partner dose 0.4 µM) | 131%
3 | CCN(CC)CCNC(=O)c1c(C)[nH]c(/C=C2\C(=O)Nc3ccc(F)cc32)c1C [sunitinib] + CC1(C)NC(=O)N(c2ccc([N+](=O)[O-])c(C(F)(F)F)c2)C1=O [nilutamide] (first compound 0.4 µM, partner dose 1 µM) | 37.7%
4 | CN(c1ncccc1CNc1nc(Nc2ccc3c(c2)CC(=O)N3)ncc1C(F)(F)F)S(C)(=O)=O + COc1cc2c(Oc3ccc4[nH]c(C)cc4c3F)ncnc2cc1OCCCN1CCCC1 [cediranib] (first compound 0.08 µM, partner dose 0.4 µM) | 57.5%
5 | C[C@@H](N)c1ccc(C(=O)Nc2ccnc3[nH]ccc23)cc1 + COc1cc2ncnc(Nc3ccc(Oc4ccccc4)cc3)c2cc1OC [SrcI1] (first compound 0.4 µM, partner dose 2 µM) | 54.4%
6 | CCCCCCCCc1ccc(CCC(N)(CO)CO)cc1 [fingolimod] + Oc1cc(-c2nc(-c3ccccc3)[nH]c2-c2ccncc2)ccc1Cl [L779450] (first compound 2 µM, partner dose 0.2 µM) | 92.8%

A second format for part of the listing above.
Row,Structure (SMILES),cleaved PARP positive nuclei fraction
1,"CCCCCCCCc1ccc(CCC(N)(CO)CO)cc1 [fingolimod] + Cc1ccc(NC(=O)c2cccc(N(C)C)c2)cc1NC(=O)c1ccc(O)cc1 [ZM336372] (first compound 2 µM, partner dose 2 µM)",56.3%
5,"C[C@@H](N)c1ccc(C(=O)Nc2ccnc3[nH]ccc23)cc1 + COc1cc2ncnc(Nc3ccc(Oc4ccccc4)cc3)c2cc1OC [SrcI1] (first compound 0.4 µM, partner dose 2 µM)",54.4%
